The target in experiment [1] is CD9 (human sperm) (human (endogenous in sperm)) (UniProt P21926). Put plainly: co-IP; CD9 precipitated with polyclonal rabbit anti-CD9 (H-110) and Protein G Dynabeads from 1% CHAPS lysates of 5 x 10^7 sperm (mouse epididymal; human ejaculated, capacitated, acrosome-reacted), 4 °C, three RIPA washes; blot with polyclonal rabbit anti-CD81 (H-121).
For experiment [2], the target named is T1, CD9 (mouse sperm) (mouse (endogenous in sperm)), P40240.
T1 chain: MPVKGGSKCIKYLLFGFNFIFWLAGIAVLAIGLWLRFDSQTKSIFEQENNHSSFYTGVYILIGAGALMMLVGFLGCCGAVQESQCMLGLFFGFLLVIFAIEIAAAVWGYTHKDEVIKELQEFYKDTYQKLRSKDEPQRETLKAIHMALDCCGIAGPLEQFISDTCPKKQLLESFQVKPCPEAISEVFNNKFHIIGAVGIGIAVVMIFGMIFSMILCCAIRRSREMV
The experiment is described as above. The settings on record: remark: other sources report otherwise.

The chains behind the UniProt entries cited, without tags or fusion partners.
UniProt P21926: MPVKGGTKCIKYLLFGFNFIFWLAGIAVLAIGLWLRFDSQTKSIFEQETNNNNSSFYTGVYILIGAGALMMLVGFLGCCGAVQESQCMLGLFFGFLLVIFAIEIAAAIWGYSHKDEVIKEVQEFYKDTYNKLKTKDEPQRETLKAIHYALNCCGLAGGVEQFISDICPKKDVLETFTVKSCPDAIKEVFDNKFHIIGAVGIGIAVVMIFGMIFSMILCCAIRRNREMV

No constants are given. Whether binding was seen depends on the method and setting. Binding seen in cells or lysates may run through a third protein. Some entries that bind do so weakly or less than the wild type.

With “CD81 (human sperm) (from UniProt P60033 1-236)”, in experiment [1], the binding entry was “binds”.

B1: CD81 (mouse sperm), P35762 1-236 (protein)
chain: MGVEGCTKCIKYLLFVFNFVFWLAGGVILGVALWLRHDPQTTSLLYLELGNKPAPNTFYVGIYILIAVGAVMMFVGFLGCYGAIQESQCLLGTFFTCLVILFACEVAAGIWGFVNKDQIAKDVKQFYDQALQQAVMDDDANNAKAVVKTFHETLNCCGSNALTTLTTTILRNSLCPSGGNILTPLLQQDCHQKIDELFSGKLYLIGIAAIVVAVIMIFEMILSMVLCCGIRNSSVY
For B1, the binding result in experiment [2] is “no binding”.
